Our source for the activity change, negative = decreased viability values is PubChem BioAssay AID540335 (Broad Institute, 2011).

In all, about 1,300 compounds went through this assay and about 270 (21%) were called active.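 The calls were made as follows: active = dose-dependent rise or fall in viability, either side of zero, with half-maximal concentration at or below a set limit; inconclusive = flat curve at 30 to 70% viability loss, or poor fit; inactive = flat within 30% either way, or potency beyond limit.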 Some of the results follow. Potency and affinity values are given separately.

The experiment is described as follows: A375 melanoma cell viability reduction, dose response, counter-screen for MITF modulator project, cherry-pick samples, set 2 (AID 540335).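 Also: A375 human melanoma cells which do not depend on MITF; 0% = median of neutral control wells and 100% = double that signal.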 Conditions: CellTiter-Glo ATP luminescence, 24 h; at 35 µM (top of the series).
On to `COCc1cc(C)nc2sc(C(=O)Nc3ccc(OC)cc3)c(N)c12`, for which the activity change, negative = decreased viability was inactive: -2.81%. Consider `O=C(Nc1ccc(Br)cc1)c1ccc2c(c1)OCO2`, for which the activity change, negative = decreased viability was inactive: 8.84%. `Nc1ccc(-c2cc3ccccc3c(=O)o2)cc1`: the activity change, negative = decreased viability was inactive: -1.07%.

Regarding `CCOC(=O)N1CCN(C(=O)c2ccc(Cn3c(=S)[nH]c4ccc(Br)cc4c3=O)cc2)CC1`, the activity change, negative = decreased viability is inactive: -24.5%. Consider `CC(=O)N(c1nnc(-c2cccc(C)c2)s1)C1CCCC1`, for which the activity change, negative = decreased viability was inactive: 7.34%. For the molecule `Cc1cc(C)cc(NC(=O)c2ccc([N+](=O)[O-])o2)c1`, the activity change, negative = decreased viability is inactive: -28%.

As for `CC(C)C(=O)Nc1cccc(NC(=O)c2cc3ccccc3o2)c1`, the activity change, negative = decreased viability was inactive: 6.6%. With `COc1ccc(C2C(C#N)=C(N)Oc3c2oc(CO)cc3=O)cc1` (configuration not stated), the activity change, negative = decreased viability was inactive: 7.94%.

On to `O=C(/C=C/c1ccc(Cl)c([N+](=O)[O-])c1)c1ccc(O)cc1`, for which the activity change, negative = decreased viability is inactive: 24.9%. On to `Cc1ccc(O)c(NC(=O)c2ccc3c(c2)C(=O)N(CC(C)C)C3=O)c1`, for which the activity change, negative = decreased viability was inactive: -0.369%. On to `CCN1CCN(c2ccc(S(=O)(=O)N3CCCCC3)cc2NC(=O)/C=C/c2ccc([N+](=O)[O-])cc2)CC1`, for which the activity change, negative = decreased viability was inactive: -9.5%. On to `Cc1ccc2nc(-c3ccncc3)[nH]c2c1`, for which the activity change, negative = decreased viability was inactive: -3.24%. In the case of `CCOc1ccc(-n2c(O)c(/C=N/Nc3nc(C)cc(C)n3)c3ccccc3c2=O)cc1`, the activity change, negative = decreased viability is inactive: -7.25%. Consider `N=c1n(CCN2CCCC2)c2ccccc2n1CC(O)c1ccc(Cl)c(Cl)c1` (configuration not stated), for which the activity change, negative = decreased viability was inactive: -89.6%.

In the case of `COc1ccc(-c2cc(-c3ccc(OC)c(OC)c3)n[nH]2)c(O)c1`, the activity change, negative = decreased viability was inactive: -7.59%.

In the case of `N#C/C(=C\c1ccc(OCc2ccc(C(=O)O)cc2)cc1)C(=O)N1CCOCC1`, the activity change, negative = decreased viability is inactive: -3.63%. Then `COc1ccc(N(CC(=O)NCC2CCCO2)S(=O)(=O)c2ccccc2)cc1OC` (configuration not stated), with inactive: -0.293%. In the case of `Cc1ccc(SCCSc2ncccn2)cc1`, the activity change, negative = decreased viability is inactive: -15.2%. Then `COc1ccccc1-c1nnc(-c2ccc(C)cc2)o1`, with inactive: 7.71%. With `COCc1nc(-c2ccc(-c3ccccc3)nc2OC)no1`, the activity change, negative = decreased viability was inactive: 3.8%. On to `COc1ccc(NC(C)C(=O)N/N=C/c2ccc([N+](=O)[O-])s2)cc1` (configuration not stated), for which the activity change, negative = decreased viability is inactive: 2.8%. With `Cc1ccc(C)c(S(=O)(=O)N2CCN(Cc3ccc(O)c4ncccc34)CC2)c1`, the activity change, negative = decreased viability was inactive: -30.3%. For `O=[N+]([O-])c1ccc(/C=N/n2c(CO)nc3ccccc32)s1`, the activity change, negative = decreased viability was inactive: -12.5%. As for `COc1ccc(-c2csc(Nc3ccccn3)n2)cc1OC`, the activity change, negative = decreased viability was inactive: 8.18%. Next, `C=CCNC(=O)c1ccc2nc(Cc3ccc(OC)cc3)oc2c1`: inactive: 1.63%; `Brc1ccc(-c2cn3cccnc3n2)cc1`: inactive: 6.27%; `C/C(=N\NC(=O)C1COc2ccccc2O1)c1ccccn1` (configuration not stated): inactive: -32.6%. For `CC(C)N1C(=O)S/C(=C\c2ccc(-c3ccc(Cl)c(C(=O)O)c3)o2)C1=O`, the activity change, negative = decreased viability was inactive: -2.37%.

For the molecule `Clc1ccccc1CSc1nnc(-c2ccncc2)o1`, the activity change, negative = decreased viability is inactive: 11.3%. Consider `COc1cc(SC)ccc1C(=O)NCCOc1ccccc1Cl`, for which the activity change, negative = decreased viability is inactive: 10.6%.

With `N#CC(C#N)=C1C=CC=CN1/C(=C\c1ccco1)C(=O)c1ccc(Br)cc1`, the activity change, negative = decreased viability is inactive: 45.1%. Then `Cc1oc(=O)c(NC(=O)c2ccccc2)cc1C(=O)c1ccccc1`, with inactive: 9.47%; and `CC(=O)Nc1ccc2c(c1)ncn2-c1ccccc1`, with inactive: 8.14%; and `O=C(NCc1ccccc1)C(=O)Nc1cccc(C(=O)O)c1`, with inactive: 3.7%. For the molecule `CCS(=O)(=O)c1ccc(N=Nc2ccc(O)c3ncccc23)c(OC)c1`, the activity change, negative = decreased viability was inactive: -34%. Then `CN(Cc1ccccc1)C1=CC(=[N+]2CCCC2)CC(C)(C)C1`, with inactive: -13.8%. As to `C/C(=N/Nc1nc(C)c(C)s1)c1cccc([N+](=O)[O-])c1`, the activity change, negative = decreased viability is inactive: 1.49%. With `CCCCOc1ccc(-c2ncc([N+](=O)[O-])cn2)cc1`, the activity change, negative = decreased viability is inactive: 8.06%.

`Cn1c(=O)c([N+](=O)[O-])c(-n2ccnc2)c2ccccc21`: the activity change, negative = decreased viability was inactive: -0.212%.

As for `O=C(CN1CCCCC1)Nc1scc2c1c(=O)oc1ccccc12`, the activity change, negative = decreased viability was inactive: 4.14%. As for `O=C1CN(c2ccccc2)C(=S)N1C(=O)c1ccccc1`, the activity change, negative = decreased viability was inactive: 11.4%. As to `COc1ccccc1-c1nc(-c2ccc(C)nc2OC)no1`, the activity change, negative = decreased viability was inactive: 10.9%. Next, `Cc1cc(O)ccc1Nc1nc(-c2cccnc2)cs1`: inactive: -1.4%. Then `O=C(/C=C/c1ccccc1Cl)NC1CCCCC1`, with inactive: 7.8%; and `COc1ccc(C(=O)/C=C(\C)Nc2ccc3c(c2)OCO3)cc1`, with inactive: 0.308%; and `COc1cc(SC)ccc1C(=O)Nc1ncc(C)s1`, with inactive: -13.6%.

`CS(=O)(=O)N1CCN(c2nc3ccc(Cl)cc3s2)CC1`: the activity change, negative = decreased viability is inactive: 1.7%.

`O=S1(=O)CCC(NC(=S)SCc2ccccc2Br)C1` (configuration not stated): the activity change, negative = decreased viability was inactive: 3.82%. For the molecule `O=C(NCc1cccs1)c1nc2c(nnn2Cc2ccccc2Cl)c(=O)[nH]1`, the activity change, negative = decreased viability is inactive: -21.2%.

On to `Cc1ccc(NC(=O)CCl)cc1S(=O)(=O)N1CCCCCC1`, for which the activity change, negative = decreased viability is inactive: -23.1%.

Take `Cc1ccc(OCC(=O)N/N=C/c2ccc([N+](=O)[O-])o2)cc1`: the activity change, negative = decreased viability is inactive: -2.81%. Next, `N#Cc1nc(/C=C/c2ccccc2)oc1NCCCN1CCOCC1`: inactive: 4.72%. As for `Cc1ccccc1C(=O)N/N=C/c1ccc([N+](=O)[O-])s1`, the activity change, negative = decreased viability was inactive: -20.2%. With `O=C1CN(C(=O)Cn2ncc(Cl)c(Cl)c2=O)c2ccccc2N1`, the activity change, negative = decreased viability is inactive: 36.1%.

For `CC(=O)Oc1c(C(=O)c2nnc(C)o2)c(=O)n(Cc2ccccc2)c2ccccc12`, the activity change, negative = decreased viability is inactive: -8.69%. Then `O=C(Nc1ccc(S(=O)(=O)NC2=NCCCCC2)cc1)c1ccc([N+](=O)[O-])s1`, with inactive: -24.7%; and `O=C1c2ccccc2CN1c1ccccc1`, with inactive: -6.69%; and `CC1Cc2ccccc2N1C(=O)c1ccc(Br)o1` (configuration not stated), with inactive: -36.8%. Consider `COc1cc(CN2CCC(C(N)=O)CC2)ccc1OCc1ccccc1`, for which the activity change, negative = decreased viability is inactive: 0.046%.

Regarding `O=C(O)c1cccc(NC(=O)c2cccc(NC(=O)C3CCCO3)c2)c1` (configuration not stated), the activity change, negative = decreased viability was inactive: 0.815%.

In the case of `Cc1ccc(NC(=O)C2CCN(S(=O)(=O)c3c(C)noc3/C=C/c3ccco3)CC2)nc1`, the activity change, negative = decreased viability was inactive: -20.7%.

For the molecule `COc1ccc(NC(=O)c2cc3ccccc3[nH]2)cc1`, the activity change, negative = decreased viability was inactive: 1.75%. Next, `COc1ccc(/C=N/NC(=O)Cc2cccs2)cc1`: inactive: 14.8%; `Cc1nc2cc(NC(=O)Nc3cccc([N+](=O)[O-])c3)ccc2n1C`: inactive: 6.25%; `O=C1CCC2S/C(=C/Nc3ccc(C(F)(F)F)cc3)C(=O)N12` (configuration not stated): inactive: 15.7%. In the case of `N#CC(C#N)=C1C=CC=CN1/C(=C\c1ccco1)C(=O)c1ccc(Cl)cc1`, the activity change, negative = decreased viability is inactive: 75.5%. Next, `COc1ccc(/C=C2\SC(=O)N(CCCC(=O)Nc3cc(Cl)ccc3C(=O)O)C2=O)cc1`: inactive: 10.5%; `CN(C)c1ccc(NC(=O)Nc2ccc3c(c2)nnn3C)cc1`: inactive: 6.32%; `O=C(CCl)Nc1cn(-c2ccccc2)nc1-c1ccccc1`: inactive: 14.5%. Consider `CN(c1ccc2nc3ccccc3c(=O)n2n1)C1CCCCC1`, for which the activity change, negative = decreased viability is inactive: -34.4%. As to `CCc1ccccc1NC(=O)CN(C)C(=O)Cn1ncc(Cl)c(Cl)c1=O`, the activity change, negative = decreased viability is inactive: 80.5%. With `O=C(CSCC(=O)Nc1ccccc1)N/N=C/c1c(O)ccc2ccccc12`, the activity change, negative = decreased viability is inactive: -31.7%. Consider `Cn1cc([N+](=O)[O-])c(C(=O)Nc2nc(-c3ccc(Cl)cc3)cs2)n1`, for which the activity change, negative = decreased viability was inactive: -6.64%.

`COc1ccc(C(=O)Nc2ccc3ccccc3c2)cc1OC`: the activity change, negative = decreased viability is inactive: 10.4%.

Regarding `Cc1ccc2nc(NC(=O)c3ccc(Br)o3)sc2c1`, the activity change, negative = decreased viability was inactive: -0.809%. Turning to `O=C(CCl)Nc1cccc(S(=O)(=O)N2CCCCCC2)c1`, the activity change, negative = decreased viability is inactive: -32%. Next, `Clc1c(-c2ccccc2)nc2ccccn12`: inactive: 7.16%. In the case of `Cc1cc(C(F)(F)F)c2c(N)c(C(=O)Nc3cc(C)on3)sc2n1`, the activity change, negative = decreased viability is inactive: -4.72%.

As for `CC(/C=N/NC(=O)c1cc(-c2ccncc2)nc2ccccc12)=C\c1ccco1`, the activity change, negative = decreased viability is inactive: 14.4%.

Turning to `C=CCn1c(C)cc(C(=O)Cn2ncc(Cl)c(Cl)c2=O)c1C`, the activity change, negative = decreased viability was inactive: -34.1%. Then `Cc1nc2ccccn2c1C(=O)N/N=C/c1ccc([N+](=O)[O-])o1`, with inactive: -19.2%; and `Cc1ccc(-c2cn(-c3ccc(SC(F)F)cc3)c3[n+]2CCC3)cc1`, with inactive: -14.1%; and `Cc1ccc(NC(=O)c2ccc(OCC3CCCO3)cc2)c(C)c1` (configuration not stated), with inactive: -0.884%. Next, `CN1CCN(C2=C(NS(=O)(=O)c3ccccc3)C(=O)c3ccccc3C2=O)CC1`: inactive: -10%; `Cc1ccc2c(c1)COc1c3ccc(C(=O)O)cc3nn1-2`: inactive: -25.5%.

Consider `CCOc1ccc(OCc2ccc(C(=O)N/N=C(\C)c3ccccn3)cc2)cc1`, for which the activity change, negative = decreased viability was inactive: -13.6%. Turning to `CCOc1ccccc1NC(=O)C1C2CCC(O2)C1C(=O)O` (configuration not stated), the activity change, negative = decreased viability was inactive: 6.49%. Then `COCCN(C(=O)CCl)C(C(=O)NC1CCCCC1)c1ccccc1C` (configuration not stated), with inactive: 11%. `O=C(NCc1ccco1)c1nc2c(nnn2Cc2ccccc2Cl)c(=O)[nH]1`: the activity change, negative = decreased viability was inactive: -24.3%. `Cc1nc2ccc(NC(=O)c3ccco3)cc2nc1C`: the activity change, negative = decreased viability is inactive: 14.5%. With `COc1ccc(O)c(/C=N/NC(=O)c2ccc(CSc3nc(C)cc(C)n3)cc2)c1`, the activity change, negative = decreased viability was inactive: -33.7%.

Consider `Cc1nn(C)cc1/C=C/C(=O)c1cccs1`, for which the activity change, negative = decreased viability is inactive: 8.61%. On to `COCCn1c(C)cc(C(=O)COC(=O)c2ccccc2Br)c1C`, for which the activity change, negative = decreased viability is inactive: -16.4%.

Turning to `CC(=O)c1cccc(Nc2nc(-c3cccnc3)cs2)c1`, the activity change, negative = decreased viability is inactive: 1.85%. As to `COc1ccc(C(=O)Nc2ccc3c(c2)OCCO3)cc1Br`, the activity change, negative = decreased viability is inactive: 2.12%. `Cc1cn(CCC(=O)Nc2ccccc2N2CCOCC2)c2ccccc12`: the activity change, negative = decreased viability was inactive: 9.99%. Next, `CCCCOc1ccc(-c2nnn(C(C)(C)C(=O)OC)n2)cc1`: inactive: -1.6%.
